# Results are given in words; binding and its absence hold for the method and conditions named. In cells and extracts the contact can be indirect. Some results given as binding are weak or reduced against the parent protein; the word gives no strength.
# By UniProt entry, the sequences of proteins in these tests, tags left out. Residues count along the entry.
# UniProt P01552, residues 28-266: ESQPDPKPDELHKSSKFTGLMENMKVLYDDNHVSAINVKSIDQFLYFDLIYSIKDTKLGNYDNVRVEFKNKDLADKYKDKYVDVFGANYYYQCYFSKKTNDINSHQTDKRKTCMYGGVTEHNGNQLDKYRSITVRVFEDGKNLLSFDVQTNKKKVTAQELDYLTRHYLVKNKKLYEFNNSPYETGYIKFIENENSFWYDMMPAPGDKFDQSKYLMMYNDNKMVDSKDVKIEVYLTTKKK
# Molecular target: T1, CD1d expressed on human renal proximal tubule epithelial cells (human (endogenous in RPTEC)) (UniProt P15813)
# T1 sequence: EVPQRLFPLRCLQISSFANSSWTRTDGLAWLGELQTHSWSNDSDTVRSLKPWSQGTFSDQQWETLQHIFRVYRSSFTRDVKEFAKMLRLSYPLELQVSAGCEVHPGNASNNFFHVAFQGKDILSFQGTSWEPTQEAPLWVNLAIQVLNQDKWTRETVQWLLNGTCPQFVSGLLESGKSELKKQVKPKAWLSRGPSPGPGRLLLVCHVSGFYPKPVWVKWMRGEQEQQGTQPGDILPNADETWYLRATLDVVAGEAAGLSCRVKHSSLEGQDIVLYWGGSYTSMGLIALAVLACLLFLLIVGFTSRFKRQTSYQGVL
# Experiment: co-IP; only the binder purified
substance,measurement,value
staphylococcal enterotoxin B (from UniProt P01552 28-266),binding,binds

# From paper PMC4327782
